The values below come from publication PMC6599204.

By UniProt entry, the sequences of proteins in these tests, tags left out. Where a name states a change or a piece, a line headed by the entry shows the natural chain unless it says otherwise.
UniProt Q96B01: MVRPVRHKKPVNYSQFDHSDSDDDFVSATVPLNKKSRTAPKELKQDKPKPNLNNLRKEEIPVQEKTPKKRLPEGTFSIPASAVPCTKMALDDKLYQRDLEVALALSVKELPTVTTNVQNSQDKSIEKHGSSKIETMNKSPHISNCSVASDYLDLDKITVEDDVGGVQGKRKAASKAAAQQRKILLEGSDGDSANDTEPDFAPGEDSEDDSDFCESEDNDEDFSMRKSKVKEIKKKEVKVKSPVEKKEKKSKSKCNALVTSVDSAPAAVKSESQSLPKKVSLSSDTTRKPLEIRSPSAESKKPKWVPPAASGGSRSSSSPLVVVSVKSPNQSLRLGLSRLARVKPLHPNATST
UniProt Q8TAF3: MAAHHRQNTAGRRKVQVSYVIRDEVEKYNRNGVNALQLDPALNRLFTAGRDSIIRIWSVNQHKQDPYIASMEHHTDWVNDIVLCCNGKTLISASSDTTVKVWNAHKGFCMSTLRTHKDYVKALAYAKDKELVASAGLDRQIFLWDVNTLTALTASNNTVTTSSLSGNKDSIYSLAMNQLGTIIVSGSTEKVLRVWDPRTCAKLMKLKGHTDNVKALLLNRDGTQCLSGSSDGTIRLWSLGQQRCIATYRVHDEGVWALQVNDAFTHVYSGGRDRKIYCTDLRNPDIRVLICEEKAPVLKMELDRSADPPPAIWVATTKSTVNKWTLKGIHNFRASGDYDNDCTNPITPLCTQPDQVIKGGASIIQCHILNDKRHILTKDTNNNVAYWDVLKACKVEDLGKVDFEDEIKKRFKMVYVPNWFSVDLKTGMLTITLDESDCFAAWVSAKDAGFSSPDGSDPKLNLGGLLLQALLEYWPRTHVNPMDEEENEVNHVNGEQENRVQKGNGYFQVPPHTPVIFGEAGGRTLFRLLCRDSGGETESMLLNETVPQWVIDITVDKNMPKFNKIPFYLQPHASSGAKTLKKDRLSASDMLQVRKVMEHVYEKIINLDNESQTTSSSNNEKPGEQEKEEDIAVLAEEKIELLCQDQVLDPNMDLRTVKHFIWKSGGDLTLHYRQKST

The experiment addresses RAD51AP1^DM mutant (human) (UniProt Q96B01). The experiment in a line: pull-down; GST or MBP-tagged RAD51AP1 (2 ug) and Strep II-tagged UAF1 (2 ug) in 30 ul of 25 mM Tris-HCl pH 7.5, 10% glycerol, 0.5 mM EDTA, 0.01% Igepal, 1 mM DTT, 150 mM KCl for 30 min; captured on glutathione or amylose resin at 4 C for 1 h; SDS eluate on SDS-PAGE, Coomassie Blue; both purified.

These are yes or no findings as the source states them, for the method shown. Binding calls can cover weak binding; strength is not graded here.

As to UAF1 (from UniProt Q8TAF3 1-677), the binding result is listed as “binds”.
